Assay results taken from PubChem BioAssay AID493014 (National Center for Advancing Translational Sciences (NCATS), 2011).
The list shows a part of the results. Shown are side measurements of this screen, not its main read-out; they come without a call. The list favours compounds with an active or inconclusive main result. Words in brackets tell the shape of the fitted curve; partial curves, single points and poor fits give uncertain potencies.

Experiment: qHTS Assay to Find Inhibitors of Chronic Active B-Cell Receptor Signaling
Settings: ABC-DLBCL IkBa-CBG/CBR reporter, luminescence ratio (green luciferase fused to IkBa over red control in TMD8 lymphoma cells), 4 h
How it was run: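 TMD8 ABC-DLBCL cells carrying doxycycline-inducible green luciferase fused to IkappaBalpha plus unfused red luciferase were exposed to compounds (up to 46 uM) for 4 hrs at 37C. Activity came from the overlap-corrected green/red luminescence ratio.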

[1] = measured here: CBR red luminescence, cell number
[2] = measured here: IkBa-CBG green luminescence

Compound	AC50 [1]	AC50 [2]
CCc1nc2ccccc2nc1N1CCN(S(=O)(=O)c2c(C)cc(Cl)cc2C)CC1	4.47 µM [rising, single point]	–
O=C(COc1ccc(Br)cc1)Nc1nnc(C2CC2)s1	4.61 µM [rising, single point]	–
COc1ccccc1NC(=O)C(=O)c1cn(CC(=O)N2CCOCC2)c2ccccc12	1.26 µM [falling, partial curve, poor fit]	–
C[C@@H]1CC[C@]2(C(=O)O)CC[C@]3(C)C(=CCC4[C@]56CC[C@@](O)(OC5)C(C)(C)C6CC[C@]43C)C2[C@H]1C (stereo partly drawn)	5.8 µM [falling, partial curve]	–
Oc1cccc(Nc2ncnc3c2oc2ccccc23)c1	10 µM [falling, partial curve]	–
CCOC(=O)c1ccc(NC(=S)N2CCSC2c2ccc(Cl)cc2)cc1 (stereo not drawn)	20.6 µM [falling, single point]	–
CCN(CC)C(=O)CSc1ncnc2c(-c3cccs3)nsc12	14.6 µM [falling, partial curve, poor fit]	–
COc1cccc(C(C)NC(=O)c2c(F)cccc2Cl)c1 (stereo not drawn)	3.26 µM [rising, single point]	–
Cc1ccc(NC(=O)Cn2nc(-c3ccccc3)nc(Cc3ccccc3)c2=O)cc1	3.16 µM [falling, partial curve, poor fit]	–
O=c1c2ccccc2nc2ccc(NCc3cccs3)nn12	1.41 µM [falling, full curve]	–
O=C(Nc1ccc2c(c1)OCO2)c1ccc(N2C(=O)c3ccccc3C2=O)cc1	6.51 µM [falling, single point]	–
Cc1cc(C(=O)Nc2c(F)cc(F)cc2Br)n(-c2ccccc2)n1	14.1 µM [rising, partial curve, poor fit]	–
O=C(NNC(=O)C12CC3CC(CC(C3)C1)C2)c1ccccn1	20 µM [rising, partial curve]	20 µM [falling, single point]
CCOc1ccccc1NC(=O)C(OC(=O)c1cnccn1)c1ccccc1 (stereo not drawn)	16.4 µM [falling, partial curve, poor fit]	–
Cc1ccc(S(=O)(=O)NCC(=O)OCC(=O)Nc2cccc(S(=O)(=O)NC3=NCCCCC3)c2)cc1	3.98 µM [falling, full curve, poor fit]	–
CCC(C)C(=O)Nc1nc(C)c(-c2csc(Nc3cc(Cl)ccc3OC)n2)s1 (stereo not drawn)	8.91 µM [falling, partial curve, poor fit]	–
CC(=O)Nc1cccc(Nc2nc(-c3cccs3)nc3ccccc23)c1	12.6 µM [falling, single point]	–
COc1ccc(-n2c(C)c(C(=O)O)c3cc(OC)c4ccccc4c32)cc1	35.5 µM [falling, single point]	–
O=[N+]([O-])c1cccc(NN=Nc2ccccc2)c1	0.794 µM [rising, partial curve, poor fit]	–
CCOC(=O)c1c(C)[nH]c(C(=O)Nc2ccc(C)c(Cl)c2)c1C	32.6 µM [falling, single point]	–

Compound	AC50 [1]	AC50 [2]
Cc1ccccc1/C=N/NC(=O)c1ccc(-n2cnnn2)cc1	25.9 µM [falling, single point]	–
Cc1nnsc1C(=O)NC1CCCc2c1cnn2-c1ccc(C(C)(C)C)cc1 (stereo not drawn)	35.5 µM [falling, single point]	–
COc1cc(/C=C2\S/C(=N/S(=O)(=O)c3ccc(C)cc3)NC2=O)c([N+](=O)[O-])cc1OC	14.6 µM [rising, partial curve]	20.6 µM [falling, partial curve]
Cc1c(NS(C)(=O)=O)c(=O)n(-c2ccccc2)n1C	6.51 µM [rising, single point]	–
Cc1ccc(C(=O)N/C(=C\c2ccc(-c3ccc(Cl)cc3)o2)C(=O)NCCCN(C)C)cc1	35.5 µM [falling, single point]	–
Nc1nc(-c2ccco2)nn1C(=O)c1ccccc1Cl	3.98 µM [falling, full curve, poor fit]	–
Cc1ccc(C)c2[nH]c(=O)c(CCNC(=O)c3cccs3)cc12	2.59 µM [rising, full curve]	–
Brc1cccc2sc(N3CCCC3)nc12	11.2 µM [rising, single point]	–
CC(=O)Oc1ccc(C(=O)Nc2ccccc2NC(=O)c2ccc(OC(C)=O)cc2)cc1	4.47 µM [falling, partial curve]	–
O=C(CN1C(=O)c2cccnc2Oc2ccc(Cl)cc21)NCCCc1ccccc1	2.82 µM [falling, partial curve, poor fit]	–
CCN(CC)C(=O)Cn1nc(C)c2ccccc2c1=O	29.1 µM [rising, single point]	–
Cc1nc2ccc(NC(=S)NC3CCCCC3)cc2nc1C	4.47 µM [falling, partial curve, poor fit]	–
CCCSc1nc(C)c2cc(C)cc(C)c2n1	4.11 µM [rising, full curve]	–
CC(=O)Oc1ccc2c(c1)C(=O)c1ccccc1C2=O	0.794 µM [rising, full curve, poor fit]	–
Cc1nc2c(oc3ccccc32)c(=O)o1	3.98 µM [falling, partial curve]	–
CN(CC(=O)Nc1cccc(F)c1)C(=O)CCNC(=O)c1ccco1	3.26 µM [rising, full curve, poor fit]	–
COc1ccc(C(CNC(=O)c2ccc3c(c2)OCCO3)N(C)C)cc1 (stereo not drawn)	17.8 µM [falling, partial curve, poor fit]	–
O=C(Cn1c(=O)c2cccn2c2ccccc21)Nc1ccc(F)cc1F	25.1 µM [falling, single point]	–
O=C(O)/C=C/C(=O)Nc1ccc(Cl)cc1C(=O)c1ccccc1	–	11.2 µM [rising, partial curve, poor fit]
Cc1cccc2cc3c(nc12)SC(=NCC1CCCO1)N(Cc1ccco1)C3 (stereo not drawn)	2.51 µM [falling, full curve, poor fit]	12.6 µM [falling, partial curve, poor fit]

In another format: results already given.

| Compound | AC50 [1] | AC50 [2] |
| --- | --- | --- |
| Cc1nnsc1C(=O)NC1CCCc2c1cnn2-c1ccc(C(C)(C)C)cc1 (stereo not drawn) | 35.5 µM [falling, single point] | – |
| Cc1c(NS(C)(=O)=O)c(=O)n(-c2ccccc2)n1C | 6.51 µM [rising, single point] | – |
| Cc1nc2ccc(NC(=S)NC3CCCCC3)cc2nc1C | 4.47 µM [falling, partial curve, poor fit] | – |
